PubChem BioAssay AID1224826 – NIAID, 2016
Aim: 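Knock-downs that raise or lower Tnf reporter signal after endotoxin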 (primary screen). Cells: RAW264.7 G9 macrophages from mouse bearing reporters for p65 (GFP) and the Tnf promoter (mCherry). Reagent: siRNA pool against mouse genes, 100 nM. Timing: 16 h of LPS stimulation, after 2 days of siRNA transfection. Challenge: bacterial lipopolysaccharide (Salmonella minnesota R595), 10 ng/ml. Measured: 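Imaged Tnf reporter mCherry in nuclei, minus background, normalised per plate to the median and expressed as robust z-scores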. Scale: Tnf reporter robust z-score: higher = stronger Tnf promoter reporter signal after LPS. Call rule: 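Called active when robust z-score is at most -1.3, matching the median of the Tlr4 knock-down control, or over 3; control wells and wells with under 50 cells never active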. Meaning of the calls: active = Tnf reporter clearly lowered or raised; inactive = no clear change in Tnf reporter.
This is a random part of about 17,000 reagents tested. About 1,110 of them (6.6%) were called active. 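Active means lowered or raised reporter signal; replicate intensities are raw and not normalised per plate.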 The numbers tell different reagents against one gene apart. Further read-outs or replicates are left out here.

| target gene | reagent | Tnf reporter robust z-score | fewer than 50 cells in well | outcome |
| --- | --- | --- | --- | --- |
| Ifitm3 | 1 | -0.22 | enough cells in well | inactive |
| Pof1b | 1 | 0.47 | enough cells in well | inactive |
| Dzip1 | 1 | -0.46 | enough cells in well | inactive |
| Uba7 | 1 | 0.3 | enough cells in well | inactive |
| Cyct | 1 | 2.12 | enough cells in well | inactive |
| Plin1 | 1 | – | fewer than 50 cells per well; well left out of calls | inactive |
| Or3a1c | 1 | 0.21 | enough cells in well | inactive |
| Tcaf3 | 1 | 0.57 | enough cells in well | inactive |
| Ip6k1 | 1 | – | fewer than 50 cells per well; well left out of calls | inactive |
| Sipa1 | 1 | -0.47 | enough cells in well | inactive |
| Atp8a1 | 1 | -0.57 | enough cells in well | inactive |
| Sema4g | 1 | -1.68 | enough cells in well | active |
| Rpl39l | 1 | 1.72 | enough cells in well | inactive |
| Or5j1 | 1 | 1.35 | enough cells in well | inactive |
| Psme3 | 1 | -1.94 | enough cells in well | active |
| Mif | 1 | -0.15 | enough cells in well | inactive |
| Nod1 | 1 | -0.09 | enough cells in well | inactive |
| Usp37 | 1 | -0.37 | enough cells in well | inactive |
| Tcea2 | 1 | 0.21 | enough cells in well | inactive |
| Myo5a | 1 | -0.2 | enough cells in well | inactive |
| Pak2 | 1 | -0.76 | enough cells in well | inactive |
| Arhgap45 | 1 | -0.68 | enough cells in well | inactive |
| Synj2bp | 1 | 3.92 | enough cells in well | active |
| Slc75a1 | 1 | -1.13 | enough cells in well | inactive |
| Rtn1 | 1 | -0.85 | enough cells in well | inactive |
| Chst12 | 1 | 0.1 | enough cells in well | inactive |
| 1700012A03Rik | 1 | – | fewer than 50 cells per well; well left out of calls | inactive |
| Ash1l | 1 | 0.13 | enough cells in well | inactive |
| Or5w1 | 1 | -0.16 | enough cells in well | inactive |
| Wdr18 | 1 | -0.04 | enough cells in well | inactive |
| Rsph1 | 1 | -1 | enough cells in well | inactive |
| Pik3r5 | 1 | -0.27 | enough cells in well | inactive |
| Msgn1 | 1 | 0.46 | enough cells in well | inactive |
| Bmyc | 1 | 0.84 | enough cells in well | inactive |
| Or5h26 | 1 | -1.1 | enough cells in well | inactive |
| Zfp92 | 1 | 0.22 | enough cells in well | inactive |
| Klhl31 | 1 | -0.02 | enough cells in well | inactive |
| Klhl31 | 2 | -1.19 | enough cells in well | inactive |
| Med11 | 1 | 3.65 | enough cells in well | active |
| Klk1b8 | 1 | -0.2 | enough cells in well | inactive |
| Or10ag60 | 1 | 0.33 | enough cells in well | inactive |
| Ptpn21 | 1 | -1.38 | enough cells in well | active |
| Edc3 | 1 | 1.48 | enough cells in well | inactive |
| Tomm7 | 1 | – | fewer than 50 cells per well; well left out of calls | inactive |
| Or52p1 | 1 | 1.98 | enough cells in well | inactive |
| Slc7a4 | 1 | 1.1 | enough cells in well | inactive |
| Traf3 | 1 | -0.31 | enough cells in well | inactive |
| Rtkn | 1 | -0.14 | enough cells in well | inactive |
| Plb1 | 1 | 0.12 | enough cells in well | inactive |
| Prss28 | 1 | -0.85 | enough cells in well | inactive |
| Stil | 1 | 0.3 | enough cells in well | inactive |
| Etv4 | 1 | -0.17 | enough cells in well | inactive |
| Akr1cl | 1 | -0.29 | enough cells in well | inactive |
| Khdrbs1 | 1 | 0.39 | enough cells in well | inactive |
| Cep295 | 1 | -0.94 | enough cells in well | inactive |
| Or2n1b | 1 | -1.09 | enough cells in well | inactive |
| Sec61g | 1 | -1.14 | enough cells in well | inactive |
| Atp5pd | 1 | – | fewer than 50 cells per well; well left out of calls | inactive |

8 of these entries, reformatted:
target gene	reagent	Tnf reporter robust z-score	fewer than 50 cells in well	outcome
Sema4g	1	-1.68	enough cells in well	active
Rpl39l	1	1.72	enough cells in well	inactive
Or5j1	1	1.35	enough cells in well	inactive
Psme3	1	-1.94	enough cells in well	active
Mif	1	-0.15	enough cells in well	inactive
Nod1	1	-0.09	enough cells in well	inactive
Usp37	1	-0.37	enough cells in well	inactive
Tcea2	1	0.21	enough cells in well	inactive
